From patent publication US20210069120A1, “COMPOSITE NANOPARTICLE, PREPARATION METHOD THEREOF AND PREPARATION METHOD OF COMPOSITE NANO PREPARATION USING THEREOF” (JINAN UNIVERSITY, priority 2018, published 2021) come the findings set out here.

pIC50: −log10 of the molar value.

The assay has as its system MDA-MB-231 cells. The assay can be described thus: MTT proliferation inhibition / toxicity on MDA-MB-231. The assay is classed as cell-based. The note with it: Homo sapiens, 48 hours. On the procedure:
4×10^3 MDA-MB-231 cells/well were inoculated into a 96-well plate with a concentration of 100 μL/well, and cultured in a 5% CO2 cell incubator at 37° C. for 24 hours, then a supernatant was removed after 24 hours, and 200 μL of drug-containing medium was added. The final concentrations of the PTX added to the MDA-MB-231 cells were 0.0039 μmol/L, 0.0078 μmol/L, 0.0156 μmol/L, 0.03125 μmol/L, 0.0625 μmol/L, 0.125 μmol/L, 0.25 μmol/L, 0.5 μmol/L and 1 μmol/L. At the same time, a control group (the same amount of culture fluid was added) and a blank zeroing group were set up. Each well was provided with 6 multiple wells and placed in a CO2 incubator for continuous cultivation for 48 hours. […] An OD value was measured at 570 nm of an enzyme reader. […]
(§1) 4×10^3 MDA-MB-231 cells/well were inoculated into a 96-well plate with a concentration of 100 μL/well, and cultured in a 5% CO2 cell incubator at 37° C. for 24 hours, then a supernatant was removed after 24 hours, and 200 μL of drug-containing medium was added. […] An OD value was measured at 570 nm of an enzyme reader. […]
as §1

For the compound `CC(=O)O[C@H]1C(=O)[C@@]2(C)[C@H]([C@H](OC(=O)c3ccccc3)[C@]3(O)C[C@H](OC(=O)[C@H](O)[C@@H](NC(=O)c4ccccc4)c4ccccc4)C(C)=C1C3(C)C)[C@]1(OC(C)=O)CO[C@@H]1C[C@@H]2O` [PTX, paclitaxel], the negative logarithm of the IC50 (pIC50) was 5.99.

Usually pIC50 stands for the negative decadic logarithm of the IC50, by convention in mol/L. Lower therefore signals a large IC50.
